Laboratory results: PubChem BioAssay AID493014 (National Center for Advancing Translational Sciences (NCATS), 2011)
Out of some 340,000 compounds screened, about 170 (0.05%) were called active. Inconclusive results, whose numbers are uncertain, are shown with a selection of clear calls. Calls come from the whole dose curve; as a rule, active = well fitted inhibition curve with a large enough effect in the signal ratio, with a control signal flat (not every such curve was filed as active); inconclusive = small, poorly fitted or top-dose-only effect, or effect the other way, or a change in a side signal; inactive = flat fitted curve, though single readings scatter; the % refers to the signal ratio. Potencies beside an inconclusive call are fits to weak or partial responses and may not hold up.

experiment: qHTS Assay to Find Inhibitors of Chronic Active B-Cell Receptor Signaling; conditions: ABC-DLBCL IkBa-CBG/CBR reporter, luminescence ratio (green luciferase fused to IkBa over red control in TMD8 lymphoma cells), 4 h; activity change, negative = inhibition: at 46.1 µM (top of the series);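 for activity change, negative = inhibition: plate controls were basal doxycycline-induced cells for no effect and cells given 10 µM MG132 for full effect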
How it was run: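 Cell line TMD8 (human ABC DLBCL), stably expressing tet-inducible CBG68-IkBa fusion and CBR; IMDM/0.5% FBS; cpd up to 46 uM; dox induction, 4 h, 37C/5% CO2; dual luminescence; green/red ratio; MG132 control.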
Potency is the fitted concentration of half-maximal effect.

Row | Compound | activity change, negative = inhibition | Potency
1 | Cc1ccc(NC2=C(CC(=O)O)C(c3ccccc3)N(c3ccc(C)cc3)C2=O)cc1 (configuration not stated) | inconclusive: -27.7% | –
2 | CCOC(=O)CC1C(=O)NCCN1S(=O)(=O)c1cc(Cl)c(Cl)cc1Cl (configuration not stated) | inconclusive: -13.7% | –
3 | O=C1CC(N2CCSCC2)C(=O)N1CCc1ccccc1 (configuration not stated) | inconclusive: 0.0996% | –
4 | Cc1cc(SCC(=O)Nc2ccc(O)cc2)n2ncc(-c3ccccc3)c2n1 | – | inconclusive: 35.5 µM [falling, single point]
5 | Cc1nc2nc(-c3ccccc3)[nH]n2c(=O)c1C | – | inconclusive: 20.6 µM [falling, partial curve]
6 | CC(C)N(C(=O)Cn1cc(S(=O)(=O)CC(=O)NCc2ccccc2)c2ccccc21)C(C)C | inconclusive: -2.42% | –
7 | O=C(Nc1ccncc1)Nc1ccncc1 | inconclusive: -5.55% | –
8 | CCOc1ccc(/C=C/C(=O)N(CC)CC(=O)NCc2cccs2)cc1OC | inconclusive: 8.21% | –
9 | CCCCSC(=O)Nc1ccccc1 | inactive: 0.385% | –
10 | Cc1c(C(=O)N2CCN(CCc3ccccc3)CC2)oc2ccccc12 | inactive: 6.83% | –
11 | Cc1ccc(C(=O)N2C(=O)c3cccc(N)c3C2=O)o1 | – | inconclusive: 22.4 µM [falling, single point]
12 | O=[N+]([O-])c1cccc(-c2cn(-c3ccccc3)c(=S)[nH]2)c1 | inconclusive: 8.85% | –
13 | COc1ccc(NC(=O)CCn2c(-c3ccc(F)cc3)cc(C(C)=O)c2C)c(OC)c1 | inconclusive: -0.113% | –
14 | CCCNc1ncnc2c1c(-c1ccccc1)cn2-c1ccc(OCC)cc1 | inconclusive: 8.19% | –
15 | COc1cccc(Nc2ncnc3sc(C)cc23)c1 | – | inconclusive: 8.91 µM [falling, partial curve, poor fit]
16 | C[C@@H]1CC=C[C@H]2[C@H]1C(=O)N(Cc1ccccc1)[C@H]2c1ccc(F)c(/C=C/c2ccccc2)c1 | inactive: 5.08% | –
17 | C/C(=N\NC(=O)c1ccc2c(c1)OCO2)c1cccnc1 | inconclusive: -8.93% | –
18 | COC(=O)c1ccccc1NC(=O)C1CC(=O)N(c2ccccc2)C1 (configuration not stated) | inconclusive: 25.3% | –
19 | O=C(NCCCO)/C(=C\c1cn(-c2ccccc2)nc1-c1cccnc1)NC(=O)c1ccccc1 | inconclusive: -1.94% | –
20 | O=C(Nc1cnc2ccccn2c1=O)c1ccc(Cl)cc1 | – | inconclusive: 8.91 µM [falling, partial curve, poor fit]
21 | O=C(c1cnn(-c2ccccc2)c1)c1cc(F)ccc1O | inconclusive: -0.44% | –
22 | O=C(O)CC1(CC(=O)Nc2ccc(Oc3cccc(C(F)(F)F)c3)nc2)CCCC1 | inconclusive: 8.27% | –
23 | O=S(=O)(Nc1ccc(O)c2ccccc12)c1ccc(Br)cc1 | inconclusive: -12.2% | –
24 | Cc1cccc(-n2ncc3c(NCCCN4CCCC4=O)ncnc32)c1 | inconclusive: 1.89% | –
25 | CSCCC(NS(=O)(=O)c1ccc(Cl)cc1)C(=O)OCC(=O)c1c(C)[nH]c2ccccc12 (configuration not stated) | inconclusive: 11.2% | –
26 | O=c1c2cc(F)ccc2sn1-c1ccccc1 | – | inconclusive: 6.51 µM [cytotoxic, single point]

Row | Compound | activity change, negative = inhibition | Potency
27 | Cc1ccc(NC(=O)Nc2cccc([N+](=O)[O-])c2)cc1F | inactive: 8.84% | –
28 | CCOCC(=O)Nc1ccc(S(=O)(=O)Nc2nccs2)cc1 | inactive: 4.78% | –
29 | CCCn1c(=N)n(CC(O)c2ccc(C)cc2)c2ccccc21 (configuration not stated) | inconclusive: -5.03% | –
30 | CC[C@H](C)[C@H](NC(=O)c1ccc(Cl)cc1)C(=O)OCC(=O)c1ccc2c(c1)NC(=O)CO2 | – | inconclusive: 18.4 µM [falling, partial curve]
31 | NC1=NC[C@H](c2ccccc2)N1CCc1cc(C(F)(F)F)cc(C(F)(F)F)c1 | inconclusive: -16.7% | –
32 | COc1ccc(S(=O)(=O)N2CCN(CCOc3ccccc3Cl)CC2)cc1OC | inconclusive: -1.9% | –
33 | Cc1ccc(C(=O)/C=C/c2cc(Br)cc(Br)c2O)o1 | – | inconclusive: 31.6 µM [falling, single point]
34 | CC(C)(C)NC(=O)/C=C/c1cccc(C(F)(F)F)c1 | inconclusive: 5.14% | –
35 | CN(C)CCNS(=O)(=O)c1ccc(N2CCN(c3ccc(F)cc3)CC2)c([N+](=O)[O-])c1 | inconclusive: -3.28% | –
36 | CCOC(=O)c1ccc(Nc2nnc(C(C)(C)C)c(=O)[nH]2)cc1 | – | inconclusive: 1.12 µM [falling, full curve]
37 | COc1ccc(F)cc1C(=O)C1CCCN(C(=O)CCN2CCCCO2)C1 (configuration not stated) | inconclusive: 3.33% | –
38 | COc1ccc(/C=C2\CCCC(C(=O)C(F)(F)F)=C2O)cc1 | inconclusive: -0.727% | –
39 | N#Cc1ccc(NC(=O)Nc2ccc(Cl)cc2)cc1 | inconclusive: -10.1% | –
40 | Cc1cc(C)cc(N(CC(=O)NCc2ccco2)C(=O)CCC(=O)Nc2ccccn2)c1 | inconclusive: 2.14% | –
41 | COc1ccc(N=c2oc3cc(O)ccc3cc2C(=O)NCC2CCCO2)cc1 (configuration not stated) | inconclusive: 176% | –
42 | NNc1nc2c(F)cccc2s1 | – | inconclusive: 10.3 µM [falling, partial curve, poor fit]
43 | COc1ccc(-c2csc(NC(=O)c3ccoc3C)n2)cc1 | inconclusive: -4.06% | –
44 | CCOc1ccc(/C=N/n2cnnc2)cc1 | inconclusive: -2.66% | –
45 | CCCCNc1c2c3c(cccc3n(C)c1=O)C(=O)c1ccccc1-2 | inactive: -12.8% | –
46 | CSc1nsc(SCC(=O)Nc2cccc(C(=O)O)c2)n1 | – | inconclusive: 35.5 µM [falling, single point]
47 | Cc1noc(C)c1C(=O)Nc1c(F)cc(F)cc1Br | inconclusive: 5.49% | –
48 | CCn1c(=S)[nH]c2sc3c(c2c1=O)CCCCC3 | inconclusive: 14.3% | –
49 | COc1ccc(NC(=O)Nc2ccc3c(c2)CC(=O)N([C@H](C)CO)C[C@@H](C)[C@H](CN(C)C(=O)Nc2ccccc2)O3)cc1 | inconclusive: 0.589% | –
50 | O=C(N/N=C/c1cn(-c2ccccc2)nc1-c1cccnc1)c1ccc(F)cc1 | inconclusive: -19.5% | –
51 | Cc1nc(SCc2nc3ccccc3[nH]2)c2oc3ccccc3c2n1 | – | inconclusive: 15.8 µM [falling, single point]
52 | O=C1c2ccccc2C(=O)N1CCc1nc2ccccc2c(=O)n1-c1ccccn1 | inconclusive: 1.96% | –

Filtered by structure, the entries above with an aryl thioether with sulfur outside any ring.
Row | Compound | activity change, negative = inhibition | Potency
4 | Cc1cc(SCC(=O)Nc2ccc(O)cc2)n2ncc(-c3ccccc3)c2n1 | – | inconclusive: 35.5 µM [falling, single point]
46 | CSc1nsc(SCC(=O)Nc2cccc(C(=O)O)c2)n1 | – | inconclusive: 35.5 µM [falling, single point]
51 | Cc1nc(SCc2nc3ccccc3[nH]2)c2oc3ccccc3c2n1 | – | inconclusive: 15.8 µM [falling, single point]
